From PubChem BioAssay (NCATS)
Values joined by “and” are separate entries in the source; they are usually repeats but may differ in a detail not shown here. Identical values can stand only once. For some of these results: Most of the hits are listed elsewhere, so they are rarer here than in the full data. Records with an inconclusive call do not appear. Only a part is listed here, and it is no random draw. Active and inactive are the calls of the source. Unless noted, calls follow the shape of the full dose curve.

Protein sequences, listed by entry. Tags and fused reporters are not part of them. Lines headed by an entry give the natural chain unless they say otherwise; changes in a name come on top.
UniProt P03372, whole entry, looked up: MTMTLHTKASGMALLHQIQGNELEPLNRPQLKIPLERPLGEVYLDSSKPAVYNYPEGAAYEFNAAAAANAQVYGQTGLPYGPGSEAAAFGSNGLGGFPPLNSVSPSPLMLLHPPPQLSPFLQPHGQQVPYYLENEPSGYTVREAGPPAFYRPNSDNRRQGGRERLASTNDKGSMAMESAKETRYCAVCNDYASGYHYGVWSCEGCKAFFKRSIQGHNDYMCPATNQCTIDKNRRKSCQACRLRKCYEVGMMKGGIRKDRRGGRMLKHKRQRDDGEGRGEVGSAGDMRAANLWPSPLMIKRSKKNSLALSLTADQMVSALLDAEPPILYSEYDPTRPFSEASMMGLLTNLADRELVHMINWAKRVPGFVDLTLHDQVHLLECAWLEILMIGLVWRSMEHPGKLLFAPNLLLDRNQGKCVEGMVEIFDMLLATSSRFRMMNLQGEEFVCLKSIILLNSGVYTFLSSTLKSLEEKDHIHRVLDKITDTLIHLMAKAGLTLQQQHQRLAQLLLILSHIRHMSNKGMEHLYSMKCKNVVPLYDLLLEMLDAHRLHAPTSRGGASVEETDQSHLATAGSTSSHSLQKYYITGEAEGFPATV
UniProt Q03181: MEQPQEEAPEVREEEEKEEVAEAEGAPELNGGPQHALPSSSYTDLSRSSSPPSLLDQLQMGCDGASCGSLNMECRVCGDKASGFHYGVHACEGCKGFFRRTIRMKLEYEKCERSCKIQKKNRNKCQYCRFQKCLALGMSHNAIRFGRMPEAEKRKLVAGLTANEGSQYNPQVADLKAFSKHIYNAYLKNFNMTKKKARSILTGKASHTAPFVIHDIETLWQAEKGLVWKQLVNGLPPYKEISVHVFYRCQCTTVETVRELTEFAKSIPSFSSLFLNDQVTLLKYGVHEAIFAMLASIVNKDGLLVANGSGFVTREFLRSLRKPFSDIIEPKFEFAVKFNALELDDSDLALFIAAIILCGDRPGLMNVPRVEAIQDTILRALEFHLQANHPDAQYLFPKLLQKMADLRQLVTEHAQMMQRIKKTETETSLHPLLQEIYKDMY
UniProt P19793: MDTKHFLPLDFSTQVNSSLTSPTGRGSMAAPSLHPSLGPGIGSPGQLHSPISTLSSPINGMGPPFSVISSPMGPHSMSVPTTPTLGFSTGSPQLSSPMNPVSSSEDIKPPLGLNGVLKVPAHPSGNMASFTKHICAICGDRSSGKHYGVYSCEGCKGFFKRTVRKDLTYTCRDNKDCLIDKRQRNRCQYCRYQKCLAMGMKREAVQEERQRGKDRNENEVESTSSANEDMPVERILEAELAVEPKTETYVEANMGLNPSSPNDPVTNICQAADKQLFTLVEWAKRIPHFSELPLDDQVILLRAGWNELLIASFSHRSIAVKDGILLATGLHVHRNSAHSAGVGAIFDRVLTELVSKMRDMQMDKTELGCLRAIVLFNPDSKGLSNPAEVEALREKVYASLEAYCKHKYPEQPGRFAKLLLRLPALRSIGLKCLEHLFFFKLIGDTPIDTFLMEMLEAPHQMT

How the values were obtained:
[1] = Cell Viability - LYMP1-002 - Assay at 24 hr (AID 993; active = well fitted cell-killing curve with a large enough effect; also: % is scaled to controls: 0 for no effect and ±100 for the full control effect); conditions: LYMP1-002 lymphoblastoid cells viability; at 92.2 µM (top of the series)
In short: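 Human lymphoblastoid LYMP1-002 cells (2500/well) treated 24 h at 37 °C; viability as intracellular ATP by CellTiter-Glo luminescence. Tetraoctylammonium bromide as positive control; AC50 from Hill-equation fits of qHTS concentration-response.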

[2] = Cell Viability - LYMP1-002 - Assay at 40 hr (AID 994; active = well fitted cell-killing curve with a large enough effect;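 also: 0% = DMSO only and full inhibition = 92 µM tetraoctylammonium bromide; nearly all actives have a fitted effect of over 60% in size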); conditions: LYMP1-002 lymphoblastoid cell viability; at 92.2 µM (top of the series)
In short: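 LYMP1-002 human lymphoblastoid cells (2500/well, complete medium) were treated with compounds for 40 hr at 37 C. Intracellular ATP was measured by CellTiter-Glo luminescence, and AC50 values came from Hill-equation fits of concentration-response data; tetraoctylammonium bromide was the positive control.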

[3] = qHTS Assay for Identification of Small Molecule Inducers of Hypoxia Response (AID 2120; active = well fitted curve in the direction sought with a large enough effect in the signal ratio, with a control signal flat, not every such curve was filed as active; the % refers to the signal ratio; also: 0% is about no effect); conditions: hypoxia response reporter cells, beta-lactamase ratio readout; at 104 µM (top of the series)
In short: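 HRE-bla ME-180 cells in Opti-MEM with 0.5% dialyzed FBS, pre-plated 4-5 h, then compound titration for 17 h at 37 degrees Celsius. CCF4 loaded 2.5 h at room temperature; 460/530 nm ratio gave %Activity and AC50 for induction.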

[4] = biological target: Estrogen receptor (Homo sapiens) (UniProt P03372); assay: qHTS assay for small molecule antagonists of estrogen receptor alpha signaling (AID 588513; active = well fitted curve in the direction sought with a large enough effect in the signal ratio, with a control signal flat, not every such curve was filed as active; the % refers to the signal ratio; also: % is scaled to controls: 0 for no effect and ±100 for the full control effect); conditions: ER-alpha-UAS-bla HEK293, beta-lactamase ratio, antagonist mode; at 76.9 µM (top of the series)
In short: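 Fluorescence from CCF4 substrate after 2 h at room temperature gave reporter activity; cells had been exposed to compound and 0.5nM 17-beta-estradiol for 18 h at 37 C. Hill-equation fitting yielded IC50 and maximal response.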

[5] = biological target: Estrogen receptor (Homo sapiens) (UniProt P03372); assay: qHTS assay for small molecule agonists of estrogen receptor alpha signaling (AID 588514); conditions: ER-alpha-UAS-bla HEK293, beta-lactamase ratio, 18 h, percent of full estradiol response, vehicle zero; at 76.8 µM (top of the series);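 also: 0% = vehicle only and 100% = reference agonist; nearly all actives have a fitted effect of over 70% in size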
In short: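 ER-alpha-UAS-bla GripTite HEK293 cells, 5000/well in 2% charcoal/dextran-stripped FBS medium, treated with compound titrations 18 h at 37 C. CCF4 beta-lactamase read by fluorescence after 2 h RT; normalised to 20 nM 17-beta-estradiol (100%) and DMSO (0%), Hill fit for EC50 and efficacy.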

[6] = biological target: Glucocorticoid receptor (Homo sapiens) (UniProt P04150); assay: qHTS assay for small molecule agonists of glucocorticoid receptor signaling (AID 588532; active = well fitted curve in the direction sought with a large enough effect in the signal ratio, with a control signal flat; the % refers to the signal ratio;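 also: 100% = dexamethasone at 0.1 µM and 0% = DMSO only wells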); conditions: HeLa MMTV-bla, beta-lactamase ratio, agonist, 18 h; stronger effect = higher value; percent of dexamethasone control, DMSO zero
In short: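 Cells were plated and rested 3-5 h at 37 C, compounds were added in titration and incubated 18 h, then CCF4 substrate was loaded for 2 h at RT before reading blue/green fluorescence. EC50 came from Hill-equation fitting.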

[7] = biological target: Glucocorticoid receptor (Homo sapiens) (UniProt P04150); assay: qHTS assay for small molecule antagonists of glucocorticoid receptor signaling (AID 588533; active = well fitted inhibition curve with a large enough effect in the signal ratio, with a control signal flat, not every such curve was filed as active; the % refers to the signal ratio; also: % is scaled to controls: 0 for no effect and ±100 for the full control effect); conditions: HeLa MMTV-bla, GRE beta-lactamase ratio, antagonist mode, 18 h; at 76.8 µM (top of the series)
In short: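 Antagonist-mode qHTS: compound titrations added to GRE-bla HeLa cells, then dexamethasone 2 nM final; 18 h, 37 C. CCF4 FRET fluorescence normalized to dexamethasone and DMSO; IC50 from Hill fit.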

[8] = biological target: Peroxisome proliferator-activated receptor delta (Homo sapiens) (UniProt Q03181); assay: qHTS assay for small molecule agonists of peroxisome proliferator-activated receptor delta signaling (AID 588534); conditions: HEK293T PPARdelta-UAS-bla, beta-lactamase ratio, 18 h; at 76.7 µM (top of the series);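 also: 0% = DMSO basal wells and 100% = positive control agonist at 10 µM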
In short: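 Cells carrying a PPAR-delta beta-lactamase reporter were treated with compounds for 18 h at 37 °C in agonist mode. CCF4 fluorescence was read after 2 h; EC50 and efficacy from Hill fits.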

[9] = qHTS assay for small molecule antagonists of peroxisome proliferator-activated receptor delta signaling (AID 588535; active = well fitted inhibition curve with a large enough effect in the signal ratio, with a control signal flat, not every such curve was filed as active; the % refers to the signal ratio;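 as to max response: cells co-treated with a PPAR-delta agonist as stimulator during compound exposure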); conditions: HEK293T PPARd-UAS-bla, beta-lactamase FRET ratio, 18 h; 460 nm channel
In short: (§1)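 Antagonist-mode beta-lactamase reporter (GeneBLAzer PPAR-delta-UAS-bla) in HEK293T cells, 2% charcoal/dextran FBS, 4000 cells/well. Compound titrations, 18 h at 37 C; CCF4 ratio read, IC50 and efficacy from Hill fits.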

[10] = biological target: Peroxisome proliferator-activated receptor delta (Homo sapiens) (UniProt Q03181); assay: as above; conditions: HEK293T PPARd-UAS-bla, beta-lactamase FRET ratio, 18 h; at 76.7 µM (top of the series)
In short: as §1

[11] = biological target: Peroxisome proliferator-activated receptor gamma (Homo sapiens) (UniProt P37231); assay: qHTS assay for small molecule agonists of peroxisome proliferator-activated receptor gamma signaling (AID 588536; active = well fitted curve in the direction sought with a large enough effect in the signal ratio, with a control signal flat, not every such curve was filed as active; the % refers to the signal ratio;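 also: 0% = DMSO basal wells and 100% = rosiglitazone at 2 µM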); conditions: HEK293 PPARg-UAS-bla, beta-lactamase ratio, 16 h, percent of rosiglitazone response, DMSO as zero; at 76.7 µM (top of the series)
In short: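 Ratiometric blue/green fluorescence (405 nm excitation; 460 and 530 nm emission) from CCF4-loaded HEK293 reporter cells serves as signal. Exposure to test compounds lasts 16 h at 37 C in medium containing 1% charcoal/dextran-treated serum.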

[12] = biological target: Peroxisome proliferator-activated receptor gamma (Homo sapiens) (UniProt P37231); assay: qHTS assay for small molecule antagonists of peroxisome proliferator-activated receptor gamma signaling (AID 588537; active = well fitted inhibition curve with a large enough effect in the signal ratio, with a control signal flat, not every such curve was filed as active; the % refers to the signal ratio;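 also: reporter cells co-stimulated with 50 nM rosiglitazone agonist during compound treatment; % of control where 0% means no effect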); conditions: HEK293 PPARg-UAS-bla, beta-lactamase ratio, antagonist mode; at 76.8 µM (top of the series)
In short: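 PPARγ-UAS-bla HEK293 cells (3000/well) in 1% charcoal/dextran-stripped FBS are treated with compound, then stimulated with 50 nM rosiglitazone for 16 h at 37 °C. Read-out is CCF4 β-lactamase fluorescence after 2 h at RT. IC50 comes from Hill fits normalised to rosiglitazone and DMSO.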

[13] = biological target: Vitamin D3 receptor (Homo sapiens) (UniProt P11473); assay: qHTS assay for small molecule antagonists of vitamin D receptor signaling (AID 588541); conditions: HEK293T VDR-UAS-bla, beta-lactamase ratio, antagonist mode; at 76.7 µM (top of the series);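 also: receptor activated by calcitriol during compound treatment; % is scaled to controls: 0 for no effect and ±100 for the full control effect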
In short: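 VDR-UAS-bla HEK293T cells in 2% charcoal-stripped FBS were stimulated with 1-alpha,25-dihydroxyvitamin D3 (3 nM final) plus compound for 16 h at 37 C. The beta-lactamase CCF4 readout was normalized to 50 nM agonist and DMSO, and Hill fits gave IC50.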

[14] = biological target: Vitamin D3 receptor (Homo sapiens) (UniProt P11473); assay: qHTS assay for small molecule agonists of vitamin D receptor signaling (AID 588543); conditions: HEK293T VDR-UAS-bla, beta-lactamase ratio, 16 h; at 76.8 µM (top of the series);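 also: 0% = DMSO basal and 100% = reference agonist control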
In short: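 Reporter cells (HEK293T, VDR-UAS-bla) were seeded in medium with 2% charcoal-stripped serum and incubated 5 h, then compounds in concentration series were added for 16 h at 37 °C. Stimulation was scaled between DMSO basal and 50 nM 1α,25-dihydroxyvitamin D3.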

[15] = qHTS assay for small molecule agonists of retinoid X receptor alpha signaling (AID 588544); conditions: HEK293T RXRa-UAS-bla, beta-lactamase reporter, 18 h; 530 nm emission;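 as to activation: 0% = DMSO basal wells and 100% = reference agonist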
[16] = biological target: Retinoic acid receptor RXR-alpha (Homo sapiens) (UniProt P19793); assay: as above; conditions: HEK293T RXRa-UAS-bla, beta-lactamase reporter, 18 h; at 76.7 µM (top of the series)

Nc1ccc(N)c([N+](=O)[O-])c1
-26.6% and 23.6%: max response [9]
2.09%: max response [15]
inactive: activity change, negative = cytotoxicity [1] -3.9% | viability change, negative = cytotoxic [2] -14.4% | activation [3] 0.685% | activity, negative = inhibition [4] 15.1% | activation [5] -2.32% and 3.42% | activation [6] 2.63% and 1.7% | activity change, negative = inhibition [7] 28.4% | activation [8] -1.21% and -11.4% | activity change, negative = inhibition [10] -1.02% and 1.7% | activation [11] 0.636% and 8% | activity, negative = inhibition [12] -3.62% | activity change, negative = inhibition [13] 7.87% and -0.542% | activation [14] 2.07% and -3.81% | activation [16] -5.43%
